Data from PubChem BioAssay AID248 (DTP/NCI, 2004).
The list is a part of this screen's results and no random one: it is rich in T/C values a quarter to a half above the control, in often repeated tests (any T/C) and in doses without a T/C. Other doses and runs of a compound stand elsewhere. T/C gives the treated animals as a percentage of the vehicle group. Some entries give survivors of the animals treated and no T/C: the source files T/C as zero there, which appears to mark a toxic dose or a test without result, not a measured value. Some survivor counts are full or nearly so, which does not show that the dose was tolerated: the source hardly ever lists a survival T/C far under the control, and the zero likely stands for such cases as well. Survivors were counted at the toxicity check, usually on the fifth day, unless a day is given; later deaths do not show. Schedules are NCI's codes, taken here to give the interval after Q, in days (D) or hours (H), and the number of doses after X. Some schedules carry Z or #; the key to these is not given. Some doses were run more than once; the values are given in rising order. For survival time, this PubChem deposit counts one and a half times the control or more as active, and values a quarter to a half above the control carry no call in these data; other NCI protocols may use other cut-offs. Some T/C values are followed by the survivors on the day toxicity was checked, most often the fifth; without a count, all were alive then.

Tested on: L1210 leukemia ip in BDF1 mice, survival T/C
Assay: NCI In Vivo Anticancer Drug Screen. Data for tumor model L1210 Leukemia (intraperitoneal) in B6D2F1 (BDF1) mice
Conditions: higher T/C = longer survival
[1] = T/C endpoint: mean survival time, dose: 160.0 mg/kg/injection, schedule: Q## X001 (ip), vehicle: saline

CC[C@](O)(C(=O)O)c1cc2n(c(=O)c1CO)Cc1cc3ccccc3nc1-2
T/C [1]: 136 % of control [5 of 6 alive] | survivor count [1]: 3 of 6 | survivor count (T/C endpoint: mean survival time, dose: 160.0 mg/kg/injection, schedule: Q## X002 (ip), vehicle: saline): 2 of 10 | survivor count (T/C endpoint: mean survival time, dose: 160.0 mg/kg/injection, schedule: Q## X008 (ip), vehicle: saline): 1 of 10 | survivor count (T/C endpoint: mean survival time, dose: 160.0 mg/kg/injection, schedule: Q## X008 (oral), vehicle: water): 0 of 10 | survivor count (T/C endpoint: mean survival time, dose: 200.0 mg/kg/injection, schedule: Q01DX001 (ip), vehicle: saline): 2 of 6 | survivor count (T/C endpoint: mean survival time, dose: 200.0 mg/kg/injection, schedule: Q04DX002 (ip), vehicle: saline): 1 of 3 | survivor count (T/C endpoint: mean survival time, dose: 320.0 mg/kg/injection, schedule: Q## X001 (ip), vehicle: saline): 0 of 6 and 2 of 6 | survivor count (T/C endpoint: mean survival time, dose: 320.0 mg/kg/injection, schedule: Q## X003 (ip), vehicle: saline): 3 of 10 | survivor count (T/C endpoint: mean survival time, dose: 400.0 mg/kg/injection, schedule: Q04DX002 (ip), vehicle: saline): 0 of 3 | survivor count (T/C endpoint: mean survival time, dose: 640.0 mg/kg/injection, schedule: Q01DX001 (ip), vehicle: saline): 5 of 10 | survivor count (T/C endpoint: mean survival time, dose: 640.0 mg/kg/injection, schedule: Q## X001 (ip), vehicle: saline): 0 of 6 | T/C (T/C endpoint: mean survival time, dose: 500.0 micrograms/kg/injection, schedule: Q01DX Z (ip), vehicle: saline): 133 % of control | T/C (T/C endpoint: median survival time, dose: 5.0 mg/kg/injection, schedule: Q04DX003 (ip), vehicle: saline): 128 % of control | T/C (T/C endpoint: median survival time, dose: 6.25 mg/kg/injection, schedule: Q04DX003 (ip), vehicle: saline): 133 % of control | T/C (T/C endpoint: median survival time, dose: 10.0 mg/kg/injection, schedule: Q04DX003 (ip), vehicle: saline, evaluated on day 5): 165 % of control | T/C (T/C endpoint: median survival time, dose: 10.0 mg/kg/injection, schedule: Q04DX003 (ip), vehicle: saline, evaluated on day 7): 179 % of control | T/C (T/C endpoint: median survival time, dose: 10.0 mg/kg/injection, schedule: Q04DX003 (ip), vehicle: saline, evaluated on day 30): 161 % of control | T/C (T/C endpoint: median survival time, dose: 10.0 mg/kg/injection, schedule: Q04DX003 (ip), vehicle: saline, evaluated on day 60): 155 % of control | T/C (T/C endpoint: median survival time, dose: 18.0 mg/kg/injection, schedule: Q04DX003 (ip), vehicle: saline, evaluated on day 7): 139 % of control | T/C (T/C endpoint: median survival time, dose: 18.0 mg/kg/injection, schedule: Q04DX003 (ip), vehicle: saline, evaluated on day 50): 135 % of control | T/C (T/C endpoint: median survival time, dose: 20.0 mg/kg/injection, schedule: Q04DX003 (ip), vehicle: saline, evaluated on day 5): 199 % of control | T/C (T/C endpoint: median survival time, dose: 20.0 mg/kg/injection, schedule: Q04DX003 (ip), vehicle: saline, evaluated on day 7): 199 % of control | T/C (T/C endpoint: median survival time, dose: 20.0 mg/kg/injection, schedule: Q04DX003 (ip), vehicle: saline, evaluated on day 30): 194 % of control | T/C (T/C endpoint: median survival time, dose: 20.0 mg/kg/injection, schedule: Q04DX003 (ip), vehicle: saline, evaluated on day 60): 183 % of control | T/C (T/C endpoint: median survival time, dose: 30.0 mg/kg/injection, schedule: Q01DX001 (ip), vehicle: saline, evaluated on day 7): 137 % of control | T/C (T/C endpoint: median survival time, dose: 30.0 mg/kg/injection, schedule: Q01DX001 (ip), vehicle: saline, evaluated on day 50): 135 % of control | T/C (T/C endpoint: median survival time, dose: 30.0 mg/kg/injection, schedule: Q04DX003 (ip), vehicle: saline, evaluated on day 7): 145 % of control | T/C (T/C endpoint: median survival time, dose: 30.0 mg/kg/injection, schedule: Q04DX003 (ip), vehicle: saline, evaluated on day 50): 140 % of control | T/C (T/C endpoint: median survival time, dose: 40.0 mg/kg/injection, schedule: Q04DX003 (ip), vehicle: saline, evaluated on day 5): 251 % of control | T/C (T/C endpoint: median survival time, dose: 40.0 mg/kg/injection, schedule: Q04DX003 (ip), vehicle: saline, evaluated on day 7): 245 % of control | T/C (T/C endpoint: median survival time, dose: 40.0 mg/kg/injection, schedule: Q04DX003 (ip), vehicle: saline, evaluated on day 30): 244 % of control | T/C (T/C endpoint: median survival time, dose: 40.0 mg/kg/injection, schedule: Q04DX003 (ip), vehicle: saline, evaluated on day 60): 222 % of control | T/C (T/C endpoint: median survival time, dose: 50.0 mg/kg/injection, schedule: Q04DX003 (ip), vehicle: saline, evaluated on day 7): 139 % of control | T/C (T/C endpoint: median survival time, dose: 50.0 mg/kg/injection, schedule: Q04DX003 (ip), vehicle: saline, evaluated on day 50): 135 % of control | T/C (T/C endpoint: median survival time, dose: 50.0 mg/kg/injection, schedule: Q04DX003 (ip), vehicle: saline, evaluated on day 54): 166 % of control | T/C (T/C endpoint: median survival time, dose: 50.0 mg/kg/injection, schedule: Q04DX003 (ip), vehicle: saline, evaluated on day 60): 238 % of control | T/C (T/C endpoint: median survival time, dose: 80.0 mg/kg/injection, schedule: Q04DX003 (ip), vehicle: saline, evaluated on day 5): 102 % of control | T/C (T/C endpoint: median survival time, dose: 80.0 mg/kg/injection, schedule: Q04DX003 (ip), vehicle: saline, evaluated on day 7): 172 % of control | T/C (T/C endpoint: median survival time, dose: 80.0 mg/kg/injection, schedule: Q04DX003 (ip), vehicle: saline, evaluated on day 30): 100 % of control | T/C (T/C endpoint: median survival time, dose: 80.0 mg/kg/injection, schedule: Q04DX003 (ip), vehicle: saline, evaluated on day 60): 177 % of control | T/C (T/C endpoint: median survival time, dose: 83.3 mg/kg/injection, schedule: Q01DX001 (ip), vehicle: saline, evaluated on day 7): 134 % of control | T/C (T/C endpoint: median survival time, dose: 83.3 mg/kg/injection, schedule: Q01DX001 (ip), vehicle: saline, evaluated on day 50): 130 % of control | T/C (T/C endpoint: median survival time, dose: 148.0 mg/kg/injection, schedule: Q01DX001 (ip), vehicle: saline): 131 % of control | survivor count (T/C endpoint: median survival time, dose: 200.0 mg/kg/injection, schedule: Q07DX003 (ip), vehicle: saline): 1 of 8 | survivor count (T/C endpoint: median survival time, dose: 400.0 mg/kg/injection, schedule: Q07DX003 (ip), vehicle: saline): 7 of 8
